# ± gives the standard deviation of the averaged measurements. This is a selection; strong and weak results do not stand in their true shares.
# Sequences of proteins named here, by UniProt entry; tags and fusion partners are left off. A change or cut given only in a name is not applied to a line headed by its entry.
# UniProt Q5JSL3: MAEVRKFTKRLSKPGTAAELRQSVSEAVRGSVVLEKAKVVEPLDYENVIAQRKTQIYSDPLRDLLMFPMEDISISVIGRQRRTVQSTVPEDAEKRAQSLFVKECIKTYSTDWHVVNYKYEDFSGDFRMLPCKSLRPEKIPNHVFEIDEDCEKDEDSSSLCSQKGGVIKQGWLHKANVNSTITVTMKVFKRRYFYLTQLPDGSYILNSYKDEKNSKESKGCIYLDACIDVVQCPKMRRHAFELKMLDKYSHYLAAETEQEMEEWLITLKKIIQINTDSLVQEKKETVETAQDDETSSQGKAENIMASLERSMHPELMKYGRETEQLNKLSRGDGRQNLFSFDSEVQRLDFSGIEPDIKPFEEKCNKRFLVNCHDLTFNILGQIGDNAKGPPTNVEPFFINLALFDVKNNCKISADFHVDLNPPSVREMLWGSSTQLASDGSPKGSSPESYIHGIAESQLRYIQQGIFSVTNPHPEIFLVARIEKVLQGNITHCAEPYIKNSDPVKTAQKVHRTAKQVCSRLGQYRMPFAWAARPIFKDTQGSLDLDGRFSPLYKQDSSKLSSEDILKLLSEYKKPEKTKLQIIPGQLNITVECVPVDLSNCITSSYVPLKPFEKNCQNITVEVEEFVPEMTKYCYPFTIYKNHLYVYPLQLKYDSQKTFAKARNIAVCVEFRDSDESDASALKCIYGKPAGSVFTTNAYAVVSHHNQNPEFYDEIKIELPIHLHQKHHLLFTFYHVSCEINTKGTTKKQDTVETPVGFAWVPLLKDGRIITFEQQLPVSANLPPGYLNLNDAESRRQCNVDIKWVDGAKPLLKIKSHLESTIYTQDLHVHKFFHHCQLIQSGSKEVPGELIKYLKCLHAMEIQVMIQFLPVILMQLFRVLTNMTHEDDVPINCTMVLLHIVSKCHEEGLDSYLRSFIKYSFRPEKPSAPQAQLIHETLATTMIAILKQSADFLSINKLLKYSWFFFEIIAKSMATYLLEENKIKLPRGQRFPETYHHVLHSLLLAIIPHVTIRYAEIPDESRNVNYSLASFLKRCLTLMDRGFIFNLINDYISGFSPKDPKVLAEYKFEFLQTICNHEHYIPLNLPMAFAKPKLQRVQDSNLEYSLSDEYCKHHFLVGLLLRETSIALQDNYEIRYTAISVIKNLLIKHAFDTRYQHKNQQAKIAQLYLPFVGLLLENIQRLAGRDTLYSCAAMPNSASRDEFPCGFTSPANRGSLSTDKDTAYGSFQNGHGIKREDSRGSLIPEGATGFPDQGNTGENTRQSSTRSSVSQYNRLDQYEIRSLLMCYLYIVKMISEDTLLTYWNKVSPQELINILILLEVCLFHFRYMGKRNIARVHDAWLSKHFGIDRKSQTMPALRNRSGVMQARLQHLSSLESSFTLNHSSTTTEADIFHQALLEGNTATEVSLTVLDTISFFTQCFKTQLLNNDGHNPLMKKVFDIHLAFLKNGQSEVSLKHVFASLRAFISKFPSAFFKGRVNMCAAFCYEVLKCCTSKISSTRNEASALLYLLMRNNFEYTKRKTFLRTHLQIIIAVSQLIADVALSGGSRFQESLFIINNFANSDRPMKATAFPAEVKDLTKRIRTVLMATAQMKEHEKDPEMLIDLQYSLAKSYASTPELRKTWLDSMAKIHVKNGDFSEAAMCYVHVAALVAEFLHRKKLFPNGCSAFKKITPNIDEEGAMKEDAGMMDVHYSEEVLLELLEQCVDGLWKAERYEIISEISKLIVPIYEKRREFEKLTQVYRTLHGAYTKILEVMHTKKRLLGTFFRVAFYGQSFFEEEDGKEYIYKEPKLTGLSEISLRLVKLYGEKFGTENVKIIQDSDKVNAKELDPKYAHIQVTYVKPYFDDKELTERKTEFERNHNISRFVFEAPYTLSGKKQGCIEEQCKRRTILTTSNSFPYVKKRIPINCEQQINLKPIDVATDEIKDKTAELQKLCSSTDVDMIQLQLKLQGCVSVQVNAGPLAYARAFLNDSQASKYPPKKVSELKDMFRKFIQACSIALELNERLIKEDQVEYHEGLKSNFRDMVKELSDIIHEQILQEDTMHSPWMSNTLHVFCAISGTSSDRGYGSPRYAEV
# UniProt P08174: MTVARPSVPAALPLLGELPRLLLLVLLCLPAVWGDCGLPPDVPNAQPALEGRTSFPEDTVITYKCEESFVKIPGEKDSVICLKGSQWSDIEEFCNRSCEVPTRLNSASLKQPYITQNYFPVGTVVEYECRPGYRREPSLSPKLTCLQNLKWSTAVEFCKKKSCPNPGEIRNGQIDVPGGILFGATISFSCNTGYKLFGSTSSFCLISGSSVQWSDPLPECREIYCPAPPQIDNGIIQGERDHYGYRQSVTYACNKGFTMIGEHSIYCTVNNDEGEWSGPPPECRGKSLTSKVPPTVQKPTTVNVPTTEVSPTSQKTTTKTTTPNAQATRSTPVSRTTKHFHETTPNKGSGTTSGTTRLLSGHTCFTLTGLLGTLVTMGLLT
# UniProt Q9H6H4: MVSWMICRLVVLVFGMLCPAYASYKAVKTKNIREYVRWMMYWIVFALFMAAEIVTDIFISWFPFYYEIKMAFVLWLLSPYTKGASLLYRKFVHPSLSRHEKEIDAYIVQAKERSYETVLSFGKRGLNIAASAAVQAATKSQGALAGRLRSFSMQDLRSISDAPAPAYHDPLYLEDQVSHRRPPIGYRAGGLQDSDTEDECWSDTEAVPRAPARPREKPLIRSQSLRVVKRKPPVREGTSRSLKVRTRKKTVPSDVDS
# UniProt P55209: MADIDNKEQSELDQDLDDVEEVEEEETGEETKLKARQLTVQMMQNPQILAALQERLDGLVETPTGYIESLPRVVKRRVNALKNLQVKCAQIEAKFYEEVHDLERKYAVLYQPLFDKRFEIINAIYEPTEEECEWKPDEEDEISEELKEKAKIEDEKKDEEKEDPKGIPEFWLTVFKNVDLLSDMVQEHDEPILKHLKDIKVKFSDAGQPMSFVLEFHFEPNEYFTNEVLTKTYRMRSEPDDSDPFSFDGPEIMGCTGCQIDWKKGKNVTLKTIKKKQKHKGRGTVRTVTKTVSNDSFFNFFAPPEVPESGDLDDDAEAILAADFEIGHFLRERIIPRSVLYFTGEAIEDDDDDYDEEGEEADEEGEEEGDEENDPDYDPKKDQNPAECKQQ
# UniProt Q9UGU5: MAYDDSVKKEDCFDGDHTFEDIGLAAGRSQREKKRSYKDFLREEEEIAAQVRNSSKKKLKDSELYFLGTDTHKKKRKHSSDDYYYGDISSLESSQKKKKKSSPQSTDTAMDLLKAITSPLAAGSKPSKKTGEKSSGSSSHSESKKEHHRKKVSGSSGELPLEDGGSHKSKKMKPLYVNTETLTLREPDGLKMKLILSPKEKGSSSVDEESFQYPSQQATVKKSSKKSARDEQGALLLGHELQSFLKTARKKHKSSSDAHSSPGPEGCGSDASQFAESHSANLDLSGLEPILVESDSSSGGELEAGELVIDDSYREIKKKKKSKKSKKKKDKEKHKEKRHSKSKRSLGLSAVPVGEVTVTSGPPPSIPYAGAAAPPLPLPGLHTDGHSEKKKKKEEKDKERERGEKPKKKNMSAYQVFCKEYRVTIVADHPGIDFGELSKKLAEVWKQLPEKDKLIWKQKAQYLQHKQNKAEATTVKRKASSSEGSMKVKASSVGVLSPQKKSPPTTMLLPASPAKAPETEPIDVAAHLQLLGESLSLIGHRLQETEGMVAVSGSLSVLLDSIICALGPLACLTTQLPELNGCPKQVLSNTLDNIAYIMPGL
# UniProt Q13427: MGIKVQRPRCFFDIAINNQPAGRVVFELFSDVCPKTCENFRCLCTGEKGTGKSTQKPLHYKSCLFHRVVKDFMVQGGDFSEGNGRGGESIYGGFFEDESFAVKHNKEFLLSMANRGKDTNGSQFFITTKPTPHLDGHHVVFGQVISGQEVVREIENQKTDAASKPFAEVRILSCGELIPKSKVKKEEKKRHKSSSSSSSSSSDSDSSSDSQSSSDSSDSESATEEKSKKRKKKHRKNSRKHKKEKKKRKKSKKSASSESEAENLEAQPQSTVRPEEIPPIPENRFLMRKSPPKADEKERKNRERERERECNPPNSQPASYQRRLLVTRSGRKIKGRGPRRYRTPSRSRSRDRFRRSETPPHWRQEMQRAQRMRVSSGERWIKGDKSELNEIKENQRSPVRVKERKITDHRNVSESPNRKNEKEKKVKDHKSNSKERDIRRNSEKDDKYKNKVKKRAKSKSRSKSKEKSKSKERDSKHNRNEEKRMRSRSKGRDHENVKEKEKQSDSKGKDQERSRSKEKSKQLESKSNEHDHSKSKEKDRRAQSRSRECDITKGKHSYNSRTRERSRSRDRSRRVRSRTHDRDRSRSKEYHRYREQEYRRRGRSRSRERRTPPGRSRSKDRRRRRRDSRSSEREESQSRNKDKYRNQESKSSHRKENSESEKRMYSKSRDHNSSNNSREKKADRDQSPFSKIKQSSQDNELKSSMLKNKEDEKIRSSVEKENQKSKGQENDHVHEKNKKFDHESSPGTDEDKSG
# UniProt O75832: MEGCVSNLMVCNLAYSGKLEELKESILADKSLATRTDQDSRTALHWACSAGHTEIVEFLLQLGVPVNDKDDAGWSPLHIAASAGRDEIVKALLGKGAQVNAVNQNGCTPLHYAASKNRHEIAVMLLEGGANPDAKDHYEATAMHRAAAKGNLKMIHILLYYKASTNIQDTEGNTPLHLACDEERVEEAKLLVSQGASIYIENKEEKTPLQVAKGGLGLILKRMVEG
# UniProt A8MWD9, whole entry, looked up: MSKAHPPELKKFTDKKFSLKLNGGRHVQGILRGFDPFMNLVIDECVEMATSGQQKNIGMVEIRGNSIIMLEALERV
# UniProt P62308, whole entry, looked up: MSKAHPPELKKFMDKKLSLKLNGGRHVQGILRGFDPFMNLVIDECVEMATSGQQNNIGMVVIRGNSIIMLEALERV
# UniProt Q9UNT1: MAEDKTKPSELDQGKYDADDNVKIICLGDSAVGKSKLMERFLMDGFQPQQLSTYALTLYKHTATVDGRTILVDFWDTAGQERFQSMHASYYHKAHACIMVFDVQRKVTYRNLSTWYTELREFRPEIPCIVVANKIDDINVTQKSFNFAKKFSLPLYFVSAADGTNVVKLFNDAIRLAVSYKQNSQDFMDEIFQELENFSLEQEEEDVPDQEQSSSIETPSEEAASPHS
# UniProt Q9UBK7: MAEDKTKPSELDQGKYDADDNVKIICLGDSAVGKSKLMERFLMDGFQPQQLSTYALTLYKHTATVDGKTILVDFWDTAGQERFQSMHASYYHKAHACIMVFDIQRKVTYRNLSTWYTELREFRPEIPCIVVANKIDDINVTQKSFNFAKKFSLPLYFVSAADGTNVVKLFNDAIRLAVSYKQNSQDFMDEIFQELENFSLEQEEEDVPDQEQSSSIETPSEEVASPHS
# UniProt Q6P1N9: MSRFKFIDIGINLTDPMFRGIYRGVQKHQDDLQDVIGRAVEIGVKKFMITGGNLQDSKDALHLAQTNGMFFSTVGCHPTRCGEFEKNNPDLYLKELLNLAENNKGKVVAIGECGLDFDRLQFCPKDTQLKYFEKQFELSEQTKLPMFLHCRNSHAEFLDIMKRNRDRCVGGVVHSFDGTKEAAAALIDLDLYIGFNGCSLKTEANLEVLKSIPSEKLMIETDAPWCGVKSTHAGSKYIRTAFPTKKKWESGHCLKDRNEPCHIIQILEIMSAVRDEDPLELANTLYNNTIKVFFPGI
# UniProt P99999: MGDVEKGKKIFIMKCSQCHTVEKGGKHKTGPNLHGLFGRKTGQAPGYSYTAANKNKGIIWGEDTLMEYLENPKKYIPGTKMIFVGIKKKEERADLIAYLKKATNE
# UniProt Q9BZL6: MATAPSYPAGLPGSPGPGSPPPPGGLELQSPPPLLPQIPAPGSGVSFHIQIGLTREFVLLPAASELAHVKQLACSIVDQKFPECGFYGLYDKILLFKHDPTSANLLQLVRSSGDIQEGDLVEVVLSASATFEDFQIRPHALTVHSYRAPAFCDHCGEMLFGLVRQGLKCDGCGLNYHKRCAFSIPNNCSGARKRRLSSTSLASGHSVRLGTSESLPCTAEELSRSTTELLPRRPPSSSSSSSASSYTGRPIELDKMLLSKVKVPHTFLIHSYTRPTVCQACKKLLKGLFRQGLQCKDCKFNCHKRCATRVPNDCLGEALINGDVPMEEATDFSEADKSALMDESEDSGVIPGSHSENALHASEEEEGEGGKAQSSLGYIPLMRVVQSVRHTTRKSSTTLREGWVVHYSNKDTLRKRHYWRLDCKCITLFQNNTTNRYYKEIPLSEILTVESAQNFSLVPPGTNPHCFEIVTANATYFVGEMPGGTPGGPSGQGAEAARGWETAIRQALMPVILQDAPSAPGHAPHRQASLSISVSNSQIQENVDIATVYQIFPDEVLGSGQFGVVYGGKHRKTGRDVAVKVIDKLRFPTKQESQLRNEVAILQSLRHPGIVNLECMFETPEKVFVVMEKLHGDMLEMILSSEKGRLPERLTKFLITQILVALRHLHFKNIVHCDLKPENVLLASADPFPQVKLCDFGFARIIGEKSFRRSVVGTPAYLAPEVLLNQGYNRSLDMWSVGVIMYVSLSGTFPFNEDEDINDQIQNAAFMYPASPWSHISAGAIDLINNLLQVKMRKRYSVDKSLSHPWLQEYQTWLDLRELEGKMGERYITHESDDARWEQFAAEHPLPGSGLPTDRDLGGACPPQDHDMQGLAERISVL
# Compound: Nc1ncnc2c1ncn2[C@@H]1O[C@H](COP(=O)(O)OP(=O)(O)NP(=O)(O)O)[C@@H](O)[C@H]1O [adenylyl imidodiphosphate]
# Assay: NP40-soluble protein abundance relative to vehicle (solubility fold change) (ratio); higher = more soluble protein in presence of AMP-PNP
# Procedure, shortened: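 Eight concentrations, 0.1 to 10 mM, were tested on Jurkat crude lysate for 10 min at room temperature and then 3 min at 37 °C, in three independent experiments. The lysate was solubilised with 0.8% NP40 and benzonase, ultracentrifuged, and the supernatant TMT-labelled for LC-MS/MS. Each value is the fold change against the detergent-processed vehicle in its own replicate, from vsn-normalised intensities.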
Target,NP40-soluble protein abundance (concentration: 1mM),NP40-soluble protein abundance (concentration: 2mM),NP40-soluble protein abundance (concentration: 4mM),NP40-soluble protein abundance (concentration: 6mM),NP40-soluble protein abundance (concentration: 8mM),NP40-soluble protein abundance (concentration: 10mM)
C9K025 and related entries (UniProt P18077),1 ± 0.024,1.04 ± 0.034,1.01 ± 0.073,1.01 ± 0.015,0.906 ± 0.076,1.02 ± 0.061
C9J470 and related entries (UniProt Q15003),0.988 ± 0.027,1.01 ± 0.014,0.987 ± 0.028,1.01 ± 0.029,0.943 ± 0.022,1.01 ± 0.038
A6NIW2 and related entries (UniProt Q5JSL3),0.963 ± 0.03,0.916 ± 0.064,0.967 ± 0.027,0.919 ± 0.041,0.936 ± 0.013,0.892 ± 0.058
B1AP13 and related entries (UniProt P08174),1.04 ± 0.046,1.03 ± 0.038,1.1 ± 0.062,1.09 ± 0.052,1.11 ± 0.072,1.15 ± 0.09
E5RGS2 and related entries (UniProt Q9H6H4),0.997 ± 0.041,0.997 ± 0.03,0.99 ± 0.03,0.997 ± 0.053,1.02 ± 0.011,1.01 ± 0.017
B7Z9C2 and related entries (UniProt P55209),1.03 ± 0.05,1.01 ± 0.045,1.03 ± 0.052,1.01 ± 0.015,1.02 ± 0.025,1.02 ± 0.024
B0QXZ9 and related entries (UniProt Q9UGU5),1.03 ± 0.061,1.07 ± 0.048,1.06 ± 0.048,1.09 ± 0.064,1.1 ± 0.069,1.13 ± 0.065
C9JM79 and related entries (UniProt Q13427),1.06 ± 0.061,1.11 ± 0.067,1.08 ± 0.082,1.08 ± 0.037,1.04 ± 0.1,1.12 ± 0.1
C9IY68 and related entries (UniProt Q9BQ75),1 ± 0.05,1 ± 0.081,1.02 ± 0.069,1.06 ± 0.073,1.06 ± 0.095,1.09 ± 0.1
B1AJY7 and related entries (UniProt O75832),0.98 ± 0.039,0.986 ± 0.03,0.952 ± 0.034,0.961 ± 0.033,0.942 ± 0.047,0.94 ± 0.036
A8MWD9 and related entries (UniProt P62308+A8MWD9),1.05 ± 0.012,1.08 ± 0.0011,1.12 ± 0.021,1.15 ± 0.021,1.26 ± 0.035,1.28 ± 0.055
A8MXF6 and related entries (UniProt Q9UNT1+Q9UBK7+B7ZBD5+A8MXF6),0.976 ± 0.05,1 ± 0.069,0.954 ± 0.019,0.977 ± 0.051,0.973 ± 0.048,0.954 ± 0.065
E5RG17 and related entries (UniProt Q6P1N9),1.01 ± 0.04,0.992 ± 0.045,1.01 ± 0.076,0.964 ± 0.03,0.96 ± 0.057,0.954 ± 0.073
C9JFR7 and related entries (UniProt P99999),0.932 ± 0.042,1.01 ± 0.091,0.942 ± 0.045,1.03 ± 0.14,1.02 ± 0.055,1.03 ± 0.11
B4DTS2 and related entries (UniProt Q9BZL6),1.03 ± 0.046,1.013 ± 0.0081,1.02 ± 0.017,1.018 ± 0.0075,1.03 ± 0.012,0.991 ± 0.01

# In another format: results already given
Target	NP40-soluble protein abundance (concentration: 1mM)	NP40-soluble protein abundance (concentration: 2mM)	NP40-soluble protein abundance (concentration: 4mM)	NP40-soluble protein abundance (concentration: 6mM)	NP40-soluble protein abundance (concentration: 8mM)	NP40-soluble protein abundance (concentration: 10mM)
B0QXZ9 and related entries (UniProt Q9UGU5)	1.03 ± 0.061	1.07 ± 0.048	1.06 ± 0.048	1.09 ± 0.064	1.1 ± 0.069	1.13 ± 0.065
C9JM79 and related entries (UniProt Q13427)	1.06 ± 0.061	1.11 ± 0.067	1.08 ± 0.082	1.08 ± 0.037	1.04 ± 0.1	1.12 ± 0.1
C9IY68 and related entries (UniProt Q9BQ75)	1 ± 0.05	1 ± 0.081	1.02 ± 0.069	1.06 ± 0.073	1.06 ± 0.095	1.09 ± 0.1
B1AJY7 and related entries (UniProt O75832)	0.98 ± 0.039	0.986 ± 0.03	0.952 ± 0.034	0.961 ± 0.033	0.942 ± 0.047	0.94 ± 0.036

# From the supplement of paper PMC6411743
